42 sequences from article PMC7819943, “Rice protein-binding microarrays: a tool to detect cis-acting elements near promoter regions in rice” can be followed below.

Sequences of proteins named here, by UniProt entry; tags and fusion partners are left off.
UniProt Q0JBA9, entry or part of it: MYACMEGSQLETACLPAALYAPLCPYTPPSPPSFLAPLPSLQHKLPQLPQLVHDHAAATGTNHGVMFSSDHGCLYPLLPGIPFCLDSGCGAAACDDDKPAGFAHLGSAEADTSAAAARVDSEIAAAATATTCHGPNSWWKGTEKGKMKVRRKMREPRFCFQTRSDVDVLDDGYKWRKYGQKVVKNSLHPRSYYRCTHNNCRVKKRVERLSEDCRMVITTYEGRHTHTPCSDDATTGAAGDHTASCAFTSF

The list shows a part of the results.

In the assay the target is OsWRKY34 (Oryza sativa, UniProt Q0JBA9 1-250). In words: protein-binding microarray (RPBM); PBS, 2% BSA, 51.3 ng/ul salmon testes DNA, 50 uM zinc acetate, 200 nM TF, 25 C, 1 h; high values mean tight binding. The note with it: protein: recombinant; tags: N-terminal polyhistidine and DsRed monomer fusion (pET32a); label: CyDye5-dUTP incorporated in the synthesized complementary strand; 3' TTTTT single-stranded linker to array surface; dsDNA, one strand shown. The method, boiled down:
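Per-feature fluorescence intensity (arbitrary units), read on an Axon 4000B scanner, is the binding signal. Transcription factors carrying an N-terminal polyhistidine tag and DsRed fusion were expressed in E. coli BL21-CodonPlus and purified on Ni–NTA. A custom Agilent array, made double-stranded by primer extension with Cy5-dUTP and blocked with 2% BSA, was incubated with 200 nM protein in PBS, 2% BSA, salmon testes DNA and 50 µM zinc acetate at 25 °C for 1 h and then washed.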
Regarding “CTCTTTCATGCAATAAACATCTACAACGTAATATCTTCTTCGGAGTCACCTAGTGCAG”, the binding signal was 8150 fluorescence intensity (a.u.).
With “ACTTAGGAGAGATTGCCTGAGTGCCATCTTTTTTGTATCTCGGAGTCACCTAGTGCAG”, the binding signal was 8960 fluorescence intensity (a.u.).
On to “GATCCATGTATGAGTTGGATTTTAAGTTCGTTTGCTTTTCCGGAGTCACCTAGTGCAG”, for which the binding signal was 8760 fluorescence intensity (a.u.).
Turning to “GCTGGCTACATATCTGTAGCCCGATTCTCTTCTCTATCATCGGAGTCACCTAGTGCAG”, the binding signal is 8100 fluorescence intensity (a.u.).
For the sequence “AACACATCTATTGTCTCGTAAGTCATATCTATGGCACATTCGGAGTCACCTAGTGCAG”, the binding signal is 9590 fluorescence intensity (a.u.).
On to “TCTTCTTCTTCTTCACTTACTTGTCCATCTTCTTTCTTCTCGGAGTCACCTAGTGCAG”, for which the binding signal was 9490 fluorescence intensity (a.u.).
With “GCGGATGATCTTGGCGGTCTCGATCTGGATCCACTTCTCCCGGAGTCACCTAGTGCAG”, the binding signal was 8520 fluorescence intensity (a.u.).
“TTTTTCATAGTAAATTTTTTATTTTTGTTTCTACTTGTATCGGAGTCACCTAGTGCAG”: the binding signal is 9470 fluorescence intensity (a.u.).
Take “TACTCCTCGTCATTTTGGTTTTGGTTTTGGTTTGGGTGGTCGGAGTCACCTAGTGCAG”: the binding signal was 10400 fluorescence intensity (a.u.).
Take “AGTCCATGATTAGCCATAAATGCTACAGTAACCTATATGTCGGAGTCACCTAGTGCAG”: the binding signal is 9700 fluorescence intensity (a.u.).
In the case of “TGTGTCTCGCCGTCTTGCGCGTATACCGTCTTCCGTGTGTCGGAGTCACCTAGTGCAG”, the binding signal is 9160 fluorescence intensity (a.u.).
Under “CCTCTGACTGACCTGTGGGCCCGTGCTGTCATTCCAATCTCGGAGTCACCTAGTGCAG” stands 8610 fluorescence intensity (a.u.).
“CAAATCTCATCATACACCAGTACACCACGCCCTATAGAACCGGAGTCACCTAGTGCAG”: the binding signal is 8200 fluorescence intensity (a.u.).
With “TCCCACCAGAGCGCCACGTCCACACCCACCCACACACCACCGGAGTCACCTAGTGCAG”, the binding signal was 8070 fluorescence intensity (a.u.).
As to “AATTCTCCATGTGGTGTTTTTTTCTCCTGAAGATAAAGATCGGAGTCACCTAGTGCAG”, the binding signal is 9130 fluorescence intensity (a.u.).
Take “CTTTCAACTTTTTCGTCACATCATTCCAATTTTAACTAAACGGAGTCACCTAGTGCAG”: the binding signal was 10700 fluorescence intensity (a.u.).
In the case of “GTGAATATTGGTGTTCTCTTTCTTTGCCCAATTCGAAGAACGGAGTCACCTAGTGCAG”, the binding signal is 11300 fluorescence intensity (a.u.).
Consider “AATCGATTCTCCACTACTCTCTCGTCATTGTTCCCATGTTCGGAGTCACCTAGTGCAG”, for which the binding signal was 20100 fluorescence intensity (a.u.).
Regarding “AACATCTAGTTCCGCTGACGCTTCGGGACAACCTCTACAACGGAGTCACCTAGTGCAG”, the binding signal is 9110 fluorescence intensity (a.u.).
As to “TCCTTTGCTCCATGCTTGTTTCCAGCTCTCCATGTGCTCTCGGAGTCACCTAGTGCAG”, the binding signal is 13100 fluorescence intensity (a.u.).
The same measure for “GAGATGGAGGTGGAGGTGGTGGAGGGGACGACGATGGTGGCGGAGTCACCTAGTGCAG”: 9610 fluorescence intensity (a.u.); for “TTTGCCATTGGTCACTAGCTCTAACTTTGCCTGGAACTAACGGAGTCACCTAGTGCAG”: 8530 fluorescence intensity (a.u.); for “GTCCACGCATTCCGTCGCTTTCGGTTCTCCTTGTGCCCAACGGAGTCACCTAGTGCAG”: 9720 fluorescence intensity (a.u.).
As to “CCCGCCTCTCCTTCTCCGGCCAGTCCAGCCGCCGCCGCCGCGGAGTCACCTAGTGCAG”, the binding signal is 9320 fluorescence intensity (a.u.).
Consider “ATACTCTCATTTTTGTTTGCTCTATTCTTTGCTTTTAGAACGGAGTCACCTAGTGCAG”, for which the binding signal was 10200 fluorescence intensity (a.u.).
“CTCGGTCTTTTTCTACCCACCCCTAAATAGCATGCTGCATCGGAGTCACCTAGTGCAG”: the binding signal was 9020 fluorescence intensity (a.u.).
As for “GTTTTTTCTTCGTTCATATTTAATGCTTCATACATATGTCCGGAGTCACCTAGTGCAG”, the binding signal was 11600 fluorescence intensity (a.u.).
Under “TGTCTTGGTCATCGCTTCGGTTGCTCATGGCGCTGTTGTGCGGAGTCACCTAGTGCAG” stands 12700 fluorescence intensity (a.u.); under “TCCTGTGTTTTGCAATCCTCTGTTTTTACACTTGCATTCCCGGAGTCACCTAGTGCAG”, 10400 fluorescence intensity (a.u.); under “GCCGTCGCACCACCACTGCCATCGCTCTCACCTCTTTGACCGGAGTCACCTAGTGCAG”, 13700 fluorescence intensity (a.u.).
Under “GGAAAAGTTGGAAGTTTGTGTGTGTAGGAAAGTTTTAATGCGGAGTCACCTAGTGCAG” stands 8390 fluorescence intensity (a.u.).
In the case of “TTCTGTCATCCTCTCTCACGTCTATCATTGGTTTCTAGATCGGAGTCACCTAGTGCAG”, the binding signal is 10500 fluorescence intensity (a.u.).
Regarding “TGCGAGGTGGTGGTGATTGCTTCGTCGGCTGTTGATTTCTCGGAGTCACCTAGTGCAG”, the binding signal is 9500 fluorescence intensity (a.u.).
As for “GTATATTGGTGCAGCACCATATTGTGTTGTAGTGTAGTGACGGAGTCACCTAGTGCAG”, the binding signal was 11900 fluorescence intensity (a.u.).
The same measure for “GGCCCACCTGTCATCATCCGCACGAGTGAAGGAGATTTCACGGAGTCACCTAGTGCAG”: 9660 fluorescence intensity (a.u.); for “TTGACACCGTTGACTTTTTAGTACATGTTTGACCGTTCGTCGGAGTCACCTAGTGCAG”: 41400 fluorescence intensity (a.u.).
As for “AGGTCGCCTCGCCTCACCTCCTTCCACGGCTCCACCGCCGCGGAGTCACCTAGTGCAG”, the binding signal was 10200 fluorescence intensity (a.u.).
For “ATTTGTGATTCCTACGTATACGAATTTTCATGTATTGATCCGGAGTCACCTAGTGCAG”, the binding signal is 8750 fluorescence intensity (a.u.).
In the case of “CTCTCCCCAAGCGAGCCGGTACATATGCATCTACATATCTCGGAGTCACCTAGTGCAG”, the binding signal was 8720 fluorescence intensity (a.u.).
As for “AGCATCAAGTCTCCACACCGCACTATGTCAAGTCCTTCTACGGAGTCACCTAGTGCAG”, the binding signal was 9390 fluorescence intensity (a.u.).
Under “GACTACTATAACCCTATTTAATGAGCACAGTACATACACACGGAGTCACCTAGTGCAG” stands 8120 fluorescence intensity (a.u.); under “CTCTGTGCGCAAGTCCACACGTCAACCATGGCCGTACGTACGGAGTCACCTAGTGCAG”, 8060 fluorescence intensity (a.u.).
